The list shows a part of the results.
B1: il2ra_site1_1z92_sap_20_mot_HHH_b2_03302_000000138_0001_21_37_H_._HHH_b1_01973_af2_0001_0000200009_0000001_0_0001 (protein)
chain: SSSSDEVREIAELVAKVAAKFKLDWEDLKILDEVALRLLERGVSEEEIEELLEEEAEKLQSSSSS
B2: il2ra_site2_2erj_normal_mot_HHH_b2_03383_af2_000000035_0001_21_37_H_._HHH_b2_06641_0001_0000600028_0000001_0 (protein)
chain: SSSSDVEERVEELLQEAERLLEEGNPEEAEKLVSEAFELAYEANDPRLAALVIEVAQKIFKSSSS
B3: il2ra_site2_2erj_sap_25_mot_35d2dc24e2c4431f89e6f806b163ecf8_0001_af2_000000103_0001_35_49_H_._HHH_b2_01993_0001_0000500009_0000001_0_0001 (protein)
chain: SSSSDVEERVKELLEEIERAYEEGDLHEAFRLMDEVFHVAAKNQNEELLQEISELLQRLSGSSSS
B4: il2ra_site2_3nfp_normal_mot_HHH_b1_05627_af2_000000038_0001_43_56_H_._HHH_b1_04379_0001_0000100005_0000001_1 (protein)
chain: SSSSDKAEEYLEVALLTLEELIREGSEEAVEEVIEAIESLAEALNDEEIEERLRKLEEEFSSSSS
B5: il2ra_site1_3nfp_normal_mot_b176b53c9fc434b7e847e53bae38b177_0001_000000049_0001_1_15_H_._4da89dcd188de4ef9c33b420109b66a0_0001_0001_0000500014_0000001_1 (protein)
chain: SVEELVERIVREGDPRLEEEFEELVREISEKHDPELAEAIIRVLARLQRINPELVRRLRELLVRT
B6: il2ra_site1_1z92_normal_mot_6c2800a769814540b5b47941e710ff28_0001_af2_000000005_0001_35_49_H_._6228ca5b8b091676f337a4c0a06dbe92_0001_0003_0000300038_0000001_0 (protein)
chain: DEFLIEQLLRKIEAGNEESAERIIERLLKNAGIPPEEVERIVEELLKLLKDGDPEEARKLLREAP
B7: il2ra_site1_1z92_sap_20_mot_HHH_b1_00368_000000203_0001_23_39_H_._HHH_b2_00211_af2_0001_0000100014_0000001_0_0001 (protein)
chain: PEYLEEDFERARQLGIPPEKVAMALLKALKAQGIPPEEVEELVEEVLELLLGDPEEAKRVLRRAK
B8: il2ra_site1_3nfp_sap_16_mot_HHH_b1_07204_af2_000000187_0001_41_55_H_._HHH_b1_00144_af2_0001_0000400024_0000001_0_0001 (protein)
chain: SSSSDQELARAVDEALRLAMRLGDHELAQRLFEIAMRLAREGDERLHEELEELIEEVEKLGSSSS
B9: il2ra_site2_2erj_sap_20_mot_HHH_b1_02757_000000041_0001_41_57_H_._HHH_b1_08686_0001_0000300033_0000001_0_0001 (protein)
chain: SSSSSESLEALEEMLEELFKEGNRSSIELILRFLEASYKKTGDPELERLIELARELLEELSSSSS
B10: il2ra_site1_1z92_normal_mot_HHH_b1_04602_000000153_0001_1_19_H_._HHH_b1_02055_0001_0000300044_0000001_1_af2pred_0001_1_af2pred_swapped (protein)
chain: SSSDLEELSQFAIRVIVELFREFKLSEEQLKELLELAAELVQRGVSPEEIEEELRELAEELSSSS
B11: il2ra_site1_2b5i_normal_mot_b9b1aa0f98829a21a591038753170461_0001_1_000000144_0001_35_50_H_._HHH_b1_01017_0001_0000300020_0000001_0_af2pred_0001_af2pred (protein)
chain: SSSTDERMRRFIEARIEILEELGNPEAVEELEELLEEVKQKNDEELLLELARLAYRLLREAKSSS
B12: il2ra_site1_3nfp_normal_mot_1d0af4279e6cd48282cc3e51f763a6be_0001_000000077_0001_33_47_H_._HEEHE_3114_0001_0000100004_0000001_0 (protein)
chain: TDARVASKIIKRALEALGAKSFEVEVENNRVTVEVEGDDEESELVERAAEEAAKAVGVPVEVESV
B13: il2ra_site1_1z92_normal_mot_b1fbee8209167eaadba3689d49187f1a_0001_1_af2_000000019_0001_16_31_H_._8e6b26e28a7d461b936e264dc559eb07_0001_af2_0001_0000100004_00000 … (protein)
chain: DEEELRRLLEELIPDPKEVEALQRLFERSKKLGIPPEKILEALLRAARRAGDEEAEEALEIILRR
B14: il2ra_site2_3nfp_normal_mot_HHH_b2_00746_000000285_0001_20_36_H_._HHH_b1_01280_0001_0000400032_0000001_0 (protein)
chain: SSSSSDEEVRELLEEAEELLKNGNPEEAKRVLARAALLAAEENDHELFALLNLLLEKIIQSSSSS
B15: il2ra_site1_3nfp_sap_18_mot_HHH_b2_00809_af2_000000121_0001_23_40_H_._HHH_b2_06352_af2_0001_0000300042_0000001_0_0001_af2pred_0001_af2pred_1_swapped (protein)
chain: SSSSTEELRKAQELIKQISELAKEGNPEEAEKVLEELRKLAEEANSPALKLFVERLERDIKSSSS
B16: il2ra_site1_2b5i_normal_mot_HHH_b1_02271_000000068_0001_1_16_H_._HHH_b2_07355_af2_0001_0000300014_0000001_0_af2pred_0001_af2pred (protein)
chain: SSSSSSRRELIEELNKLFKELAELGDDETLEEVYELFKEAARKKDPELLEEAIELAKRVLSSSSS
B17: il2ra_site1_1z92_normal_mot_9daacd37e3baa650618043516f9fc948_0001_af2_000000116_0001_36_50_H_._09c2afe89fb4cbada1505b3a46965288_0001_0001_0000300041_0000001_0_a … (protein)
chain: GPEDELERLTEELGDPREAIRELLEYIERLAGDPRLARQLLKIVIKRLFNVPPEEAERLLEEAEK
B18: il2ra_site2_3nfp_sap_9_mot_HHH_b2_07840_000000026_0001_18_34_H_._ems_3hM_3637_af2_0001_0000300035_0000001_1_0001 (protein)
chain: SSSSDKSEEYLELAEEMVEEAEEAGDEEVLRSHIEVALAMAESLGDEETFEKLEKLLEELSSSSS
B19: il2ra_site2_3nfp_sap_14_mot_HHH_b2_00747_000000224_0001_22_38_H_._HHH_b1_02963_0001_0000300013_0000001_0_0001 (protein)
chain: SSSSDDEELLEELLRRARELLEEGDEEQAREVLFRAALLAWKLDDEETARELAKLLFQIQQSSSS

Biological target: il2ra, P01589
Assay: yeast display titration

Apparent Kd, inactive:
B1 no binding seen
B2 no binding seen
B3 no binding seen
B4 no binding seen
B5 no binding seen
B6 no binding seen
B7 no binding seen
B8 no binding seen
B9 no binding seen
B10 no binding seen
B11 no binding seen
B12 no binding seen
B13 no binding seen
B14 no binding seen
B15 no binding seen
B16 no binding seen
B17 no binding seen
B18 no binding seen
B19 no binding seen

Reprinted at random: 2 records from the list.
Apparent Kd, inactive:
B17 no binding seen
B19 no binding seen

Source: paper PMC10163288
